The data scatter; read single values as rough.
System: RAW-Blue (mouse TLR9 reporter, RAW 264.7)
Experiment: mTLR9 reporter activity (SEAP, QUANTI-Blue absorbance) (OD650); higher = stronger mouse TLR9 activation
Conditions: 3 h
Procedure: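 Synthetic single-stranded 24-mer CpG ODNs were diluted in saline and added to mouse RAW-Blue cells (RAW 264.7 with an NF-kB/AP-1-inducible SEAP reporter; endogenous mouse TLR9), about 1e5 cells/well. After 3 h, SEAP in the supernatant was read with QUANTI-Blue as absorbance at 650 nm. ODN concentration and backbone chemistry are not stated; activity of 0.4 or above is the paper's high-activity class.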

| Sequence | mTLR9 reporter activity |
| --- | --- |
| TCTGTTCGTCTATTGTGCGCGCGT [ODN189] | 0.084 |
| TCGTTTATCGTGTTCGCGCGTCGT [ODN818] | 0.332 |
| TCGCGTGCGTGCGTCTGCTGCTAT [ODN144] | 0.181 |
| TACGCGTCGAGTCACGTCGTCGTT [ODN110] | 0.12 |
| TCCTGGTTCGACGCGTGCGCCATT [mODN-029] | 0.1 |
| TCGCTGCGCGTGTGCTTTGTTCGT [ODN698] | 0.181 |
| TCGTCGCGTTCGTGTTTGTCGCTT [ODN737] | 1.12 |
| TCGACGCTTGGCGGCATTGCCGTC [mODN-004] | 0.77 |
| TCTGAGCGACGTTGTCGACGAGTT [ODN072] | 0.183 |
| TCTTCGCGTCGTGCGCGCTCGTGT [ODN177] | 0.091 |
| TCCGCGGCTTGGACCACTTCGCGT [mODN066] | 0.35 |
| TCGCCGGGCCGACCTTACGCGCTT [mODN-001] | 0.1 |
| TCGCGCGATTCTTGGGGACGCCCG [mODN-011] | 0.9 |
| TCTTTTGAGTTTTTGCGTGCGCGT [ODN045] | 0.238 |
| TTGCGTTTTCGCGCAGAGTTTTGT [ODN008] | 0 |
| TCGTGCGTGAGCTTTCGCGTTGTT [ODN217] | 0.203 |
| TCGCCATTGGCGCGCCGTTGCATG [mODN94] | 0.48 |
| TCGTGCGCGAGTCTGTCTGTTCGT [ODN197] | 0.128 |
| TCGCTGCTGACGTCTGCGTCGTTT [ODN773] | 0.303 |
| TGCTTGCGTTGCGCTATTCGCGCT [ODN223] | 0.269 |
| TTCGTTTGTGCGCATCGTGAGTTT [ODN092] | 0.205 |
| TCGCTTCGCGCGTTGTGTGTTCTT [ODN246] | 0.199 |
| TCGCTGTCGCTATGCGCTCGCTGT [ODN145] | 0.384 |
| TGTCGACTGCAAGATGTCGTCGTT [ODN089] | 0.176 |

| Sequence | mTLR9 reporter activity |
| --- | --- |
| TGCTAGTGAAGTCGCGTTCTCGTT [ODN076] | 0.222 |
| TCGCTGCTCGTGCGTCGTTTGTCT [ODN750] | 0.515 |
| TGCGTCTTTCGTGATTGCGCTCGT [ODN113] | 0.152 |
| TGCGCTCGATGTTCGCGTTTGTTT [ODN272] | 0.115 |
| TGTTTTGCGCGCAGAGTCTGTTTT [ODN034] | 0.316 |
| TCGGGCCGACGTTCAGTTCGTCCA [mODN89] | 0.82 |
| TCGCGCGTGACGCTTGTTCGCTCT [ODN149] | 0.413 |
| TGTCGTCGCGTCTTGTTTGCGAGT [ODN263] | 0.176 |
| TCGCGCGTGTCGTGTCTCGCATTT [ODN211] | 0.129 |
| TCGAGCCCGCCGGCGGTTCGCTTT [mODN069] | 0.56 |
| TCGCTTGCGCGTACGCGCTTCGCT [ODN116] | 0.196 |
| TGTGTCGTTTTGCTGCGCGATTTT [ODN013] | 0.839 |
| TCGATTGTTCCCCAGCGGCGCGGG [mODN-010] | 0.16 |
| TGTCGAGAGCTAGTGTTCACGTTT [ODN096] | 0.12 |
| TGAAGTACGCGTGTGATCTGCTTT [ODN070] | 0.155 |
| TCGTTGCGCTTGCGTGTCGTTTAT [ODN196] | 0.116 |
| TCGTGTCGCTTCGTTGTTATGCGT [ODN607] | 0.757 |
| TGTCGTGTGTCACGTTGTCGCGCT [ODN235] | 0.223 |
| TCGGGGTTGCCTGCCGCGCTTGCG [mODN031] | 0.29 |
| TCGCTCGGGCGTCGCGGTTCCCTT [mODN76] | 0.46 |
| TGTTCTCGCGCGCGTGTTACTGCT [ODN150] | 0.147 |
| TCGTGCGTCGCTCTGTTCGTGCTT [ODN510] | 0.72 |
| TCGCTGCGCGTGCGTTTGCTTGCT [ODN155] | 0.278 |
| TTTGCGTCGTGCGTGTGTGATCGT [ODN248] | 0.179 |

| Sequence | mTLR9 reporter activity |
| --- | --- |
| TGTTGCTGTCGCGTCGCTGCGAGT [ODN269] | 0.102 |
| TTCGTTCACGTGCGCGCGTTGTTT [ODN238] | 0.187 |
| TGTCTGCGCGATGCGTTGTCGTTT [ODN157] | 0.144 |
| TTTTAGCAGCGTTTTGCTGCGTGT [ODN029] | 0.369 |
| TGCGTTTTGCAGCGTTGCTTTTGT [ODN033] | 0.317 |
| TGCGCATGTTTTGCGCGAGTTTTT [ODN011] | 0.371 |
| TCGCGTGGCCCTTATTCTCCGCGG [mODN044] | 0.41 |
| TCGGTTCCGCGCCGATGTTAGGCC [mODN-013] | 0.15 |
| TTATTGCGTCGTGCGCGTTTTCGT [ODN215] | 0.237 |
| TGTCGCTTCTGCTAGCGTGTTGTT [ODN097] | 0.195 |
| TCGCGCGCGCTTCTGTGTGATCTT [ODN179] | 0.124 |
| TCGCGTCGTTCTGCGCTCTGCTGT [ODN222] | 0.272 |
| TGTTTCGTAGCAGTGCGCGAACTT [ODN080] | 0.19 |
| TGTGTTCGCGTGCGTGTTCGTTAT [ODN241] | 0.146 |
| TCCGCGTTCTTGCGGCTAGGCGAC [mODN033] | 0.63 |
| TCGTTGATGTCGTCGTCGTGCTCT [ODN733] | 0.301 |
| TCGCGGCCCGACGTTCCTTGGTAT [mODN057] | 1.1 |
| TGTGAGCGTGCAGCTTTTGCTTTT [ODN020] | 0.359 |
| TCGTGCGTCTGCGAGCTCGTTTCT [ODN137] | 0.262 |
| TAGCTTTTGCGTCGCGTGCGTTTT [ODN001] | 0.447 |
| TCGTTCGCGCTCGTCGTGTTTGAT [ODN213] | 0.2 |
| TCGTTCGTTGTGCTTGACGCGTGT [ODN115] | 0.53 |
| TGATTCTGTGTCGTCGTCGCGCGT [ODN260] | 0.14 |
| TCCTGATTCGACGCGCGTTCAGGC [mODN039] | 0.71 |

| Sequence | mTLR9 reporter activity |
| --- | --- |
| TCGCTCGCTCGTTATGTGCGTGTT [ODN716] | 0.611 |
| TCTTCGCGTGAGTCGCGTTTGTGT [ODN192] | 0.152 |
| TCCCGTTTCGTTGGCTCGCACGGG [mODN81] | 0.48 |
| TCGACGCGCTTCGTTGTGTCTCGT [ODN208] | 0.249 |
| TCGTTTTCGCGTACGCGCGTGTCT [ODN159] | 0.307 |
| TCTGTCGCGCGTCGAGTTTCGCTT [ODN247] | 0.286 |
| TGACTCAAGTTGCTGTGTCGCGTT [ODN083] | 0.137 |
| TCGCTCACGCCGCTTGCTTGGTCG [mODN86] | 0.68 |
| TGCGCGCAGTCGTCTTTTGTCGTT [ODN203] | 0.095 |
| TGCGCGCTGTCTCGCGTGTGCGTT [ODN169] | 0.091 |
| TCGCGTTCGTCTACGCTGTGTCGT [ODN164] | 0.266 |
| TGCGTCGCTCGCTGTTCGTTAGCT [ODN229] | 0.205 |
| TCGACGCCGCGCTTGCGCTGGTTG [mODN84] | 0.54 |
| TCGTTGCGCCGGATCCGCGATTCA [mODN040] | 0.54 |
| TGTTCTTTTGCGCGCGCAGTCGTT [ODN237] | 0.136 |
| TATCGCAGTTGACGTGTGCGAGTT [ODN064] | 0.203 |
| TCGTGTCGCGTGCGTGAGTGTTCT [ODN141] | 0.309 |
| TCACGGGCGGTTAGCCGCCGTTCA [mODN-006] | 0.14 |
| TCGTCTGCGCGTGCGCTCTAGTCT [ODN130] | 0.421 |
| TTTTTGCGTGCGCGCTGTCGTTGT [ODN114] | 0.099 |
| TCCCGTTTGCGCGGTCCGACGCTT [mODN82] | 0.51 |
| TGTCGCAGTCTGACAGTGCTCGTT [ODN098] | 0.115 |
| TCGTTCGTTTGCGTCGTGTCATGT [ODN228] | 0.296 |
| TCGCGTCGCTGTCGTGCTGCATTT [ODN135] | 0.568 |

A second format for some results above.
Sequence	mTLR9 reporter activity
TCTTCGCGTCGTGCGCGCTCGTGT [ODN177]	0.091
TGTCGTGTGTCACGTTGTCGCGCT [ODN235]	0.223
TGACTCAAGTTGCTGTGTCGCGTT [ODN083]	0.137

Next records

| Sequence | mTLR9 reporter activity |
| --- | --- |
| TCGCATGTCAGAGTTGAGTCTGTT [ODN063] | 0.165 |
| TGCGATTGTCGTCTTGTCGCGCGT [ODN178] | 0.096 |
| TGCTACGCGTGTCGCGAGCGCATT [ODN108] | 0.075 |
| TTGTCGTAGCTGCGCGTATGATTT [ODN062] | 0.276 |
| TCGTTGCGCTGCTCGTCGTGTGCT [ODN156] | 0.523 |
| TGTGCGCGTGTCAGATTTGCGATT [ODN073] | 0.173 |
| TTGCGCGTCGTTGCGCTTCTGTCT [ODN233] | 0.186 |
| TCGGTTTGACCTTTCGCACGGCCG [mODN035] | 0.33 |
| TCGGCCGTTCTACGGTCCCTTCGG [mODN-009] | 0.17 |
| TGCAGTGTAAGTTCGCGTGTACTT [ODN061] | 0.18 |
| TGTACTCGTTGCGCGCTCGTTGCT [ODN204] | 0.244 |
| TCGTGTTCGTTGTTCTGCGATCGT [ODN160] | 0.202 |
| TGTCTCGTCTTGCGACGTCGTCGT [ODN251] | 0.153 |
| TGCGCGTCGTCTATGTCGTTGCTT [ODN273] | 0.125 |
| TTGCTACGTCGTGCGTCGTGTGCT [ODN131] | 0.404 |
| TTTGTGTGCGCGCGCGTGTTTTTT [ODN224] | 0.187 |
| TGTTTTGAGTCGCGCGTACGTTTT [ODN057] | 0.246 |
| TCGCTCGCGTCATTGTGTCGTTGT [ODN170] | 0.158 |
| TCTCGCAGTTCCGCGCTTAGCGGT [mODN77] | 0.43 |
| TGTGTGCGCTCGCGCTTCTCACGT [ODN122] | 0.176 |
| TCCGCTCCGGATTCGCTTGCAGCG [mODN90] | 0.47 |
| TCTTGCGTTGCGCGTCTTACGCGT [ODN244] | 0.232 |
| TCGCGTGCGCGTTGCGTGTCATGT [ODN154] | 0.199 |
| TCGCGTATGTCGCGTTTTTGCGCT [ODN262] | 0.16 |

Another view of part of the listing above.
Sequence,mTLR9 reporter activity
TCCGCTCCGGATTCGCTTGCAGCG [mODN90],0.47
TCTTGCGTTGCGCGTCTTACGCGT [ODN244],0.232
TCGCGTGCGCGTTGCGTGTCATGT [ODN154],0.199
TCGCGTATGTCGCGTTTTTGCGCT [ODN262],0.16

From the supplement of paper PMC6924143
